# Laboratory results taken from PubChem BioAssay AID2685 (National Center for Advancing Translational Sciences (NCATS), 2010).
# Screen size: about 320,000 compounds; about 2,100 (0.66%) were called active. Inconclusive results, whose numbers are uncertain, are shown with a selection of clear calls. Calls come from the whole dose curve; as a rule, active = well fitted inhibition curve with a large enough effect in the signal ratio, with a control signal flat (not every such curve was filed as active); inconclusive = small, poorly fitted or top-dose-only effect, or effect the other way, or a change in a side signal; inactive = flat fitted curve, though single readings scatter; the % refers to the signal ratio. Where the call is inconclusive, the potency comes from a doubtful curve fit.
# Test: qHTS Assay for Lipid Storage Modulators in Drosophila S3 Cells
# Settings: BODIPY lipid droplet fluorescence, 18-24 h, cells fed with added oleic acid; lipid storage change, negative = inhibition: at 46.1 µM (top of the series) unless noted
# Method in brief: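 Drosophila S3 cells loaded with oleic acid (400 uM, as added) and compounds at several concentrations; lipid droplets imaged by 488-nm laser-scanning cytometry, 500–530 nm intensity and object ratio to cell channel. Percent activity normalized to 20 uM Triacsin C.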
# % is set by controls: 0 for no effect and ±100 for the full control effect; potency is the fitted concentration of half-maximal effect.
SMILES,"lipid storage change, negative = inhibition",Potency,outcome
CC(NC(=O)c1ccccc1)C(=O)OCC(=O)N1c2ccccc2Sc2ccccc21 (stereo not given),inconclusive: 9.6%,,
COc1cccc(S(=O)(=O)NCC(=O)N2CCCCCC2)c1,inconclusive: -9.94%,,
O=S(=O)(Cc1ccccc1Cl)NCCc1ccccc1,inconclusive: 15.7%,,
O=C(CN1CCc2cc3c(cc2C1)OCCCO3)Nc1cccc([N+](=O)[O-])c1,inconclusive: -34.9%,,
CN(C)c1ccc(C(=O)NNC(=O)Nc2ccccc2)cc1,inconclusive: 54.6%,,
C=C(C)c1cccc(C(C)(C)NC(=O)N2CCN(c3ccccc3OC)CC2)c1,,"inconclusive: 14.6 µM [falling, partial curve]",
O=C(NCc1ccccc1)NC(O)C(Cl)(Cl)Cl (stereo not given),inconclusive: -27.3%,,
O=C(CCCN1C(=O)/C(=C/c2ccccc2Cl)SC1=S)Nc1ccccn1,inconclusive: -42%,,
O=C(NCCCN1CCOCC1)c1ccc2c(=O)n(Cc3ccccc3)c(=S)[nH]c2c1,inconclusive: -21.5%,,
CC(C)CNC(=S)NC(=O)c1ccc([N+](=O)[O-])cc1,inconclusive: 81.1%,,
CC(C)(C)OC(=O)NCCNC(=O)c1cccs1,inconclusive: -25.2%,,
CC(Sc1nc2ccccc2s1)C(=O)N1CCOCC1 (stereo not given),,"inconclusive: 23.1 µM [activator, single point]",
N#C/C(=C\c1ccccc1)C(=O)Nc1cc(S(=O)(=O)N2CCOCC2)ccc1N1CCCC1,inconclusive: -23.3%,,
COc1cc2c(cc1OC)/C(=C/C#N)NC(C)(C)C2,inconclusive: 38%,,
O=C(Nc1cccc(Cl)c1Cl)Nn1cnnc1,,"inconclusive: 29.1 µM [falling, single point]",
COc1ccc(S(=O)(=O)N2CCCC(C(=O)NCc3ccc(F)cc3)C2)cc1 (stereo not given),inconclusive: 62.7%,,
CCOc1cc(CNCCCN2CCOCC2)cc(Br)c1OCC(=O)Nc1cccc(C(F)(F)F)c1,inconclusive: 5.7%,,
COC(=O)[C@@H]1CCCN1Cc1c(C(=O)N2CCOCC2)nc2c(C)cccn12,inconclusive: -17%,,
O=C1NN(c2ccc(F)cc2)C(=O)/C1=C/c1cccs1,inconclusive: -12.9%,,
COc1cc(C)c(S(=O)(=O)NOCc2ccc([N+](=O)[O-])cc2)c(C)c1C,inconclusive: -62.8%,,
COc1cc(NC(=O)c2ccccc2)c(OC)cc1NC(=O)Cc1ccc(F)cc1,,"inconclusive: 29.1 µM [falling, single point]",
CC1Cc2ccccc2N1C(=O)CN1C(=O)NC(C)(CCc2ccccc2)C1=O (stereo not given),inconclusive: -55.6%,,
CC(C)(C)c1ccc2c(c1)N(CC(=O)O)C(=O)CO2,inconclusive: -24.4%,,
COc1cccc(NC(=O)NC2(C(=O)N3CCC(O)CC3)CCCCC2)c1,,"inconclusive: 1.84 µM [activator, partial curve]",
CCn1c2ccccc2c2cc(NC(=O)C3CCN(S(=O)(=O)c4cccs4)CC3)ccc21,,"inconclusive: 4.11 µM [falling, full curve, poor fit]",

# Whole records as entered above:
# `COc1cccc(NC(=O)NC2(C(=O)N3CCC(O)CC3)CCCCC2)c1` in the list: Potency: inconclusive: 1.84 µM [activator, partial curve]
# `C=C(C)c1cccc(C(C)(C)NC(=O)N2CCN(c3ccccc3OC)CC2)c1` in the list: Potency: inconclusive: 14.6 µM [falling, partial curve]

# Carrying on:

SMILES,"lipid storage change, negative = inhibition",Potency,outcome
Cc1cc(=O)oc2cc(N3C(=O)CC(Cc4ccccc4)C3=O)ccc12 (stereo not given),,"inconclusive: 0.116 µM [falling, full curve, poor fit]",
O=C(OCCC1Oc2cccnc2NC1=O)c1ccc(F)cc1 (stereo not given),inconclusive: 17%,,
CCN1CCN(C(=O)C2CCN(c3nnc(C)c4c(C)n(-c5ccc(C)cc5)nc34)CC2)CC1,inconclusive: 5.37%,,
C=CCn1nnnc1SCC(=O)Nc1ccccc1C(=O)OC,inconclusive: 31.7%,,
O=C(Nc1ccc(-c2nc3cccnc3s2)cc1)C1CCCO1 (stereo not given),inconclusive: -5.7%,,
O=C(C1CCCN(S(=O)(=O)c2ccccc2)C1)N1CCN(c2ccc(F)cc2)CC1 (stereo not given),inconclusive: -53.1%,,
CCC(CC)C(=O)c1c[nH]c(C(=O)NCc2cccs2)c1,inconclusive: -0.625%,,
Cc1cc(C(=S)N2CCOCC2)c(C)n1-c1ccc(Cl)cc1,,"inconclusive: 0.0046 µM [falling, full curve, poor fit]",
COc1ccccc1CNS(=O)(=O)c1c(C)[nH]c(C)c1C(=O)N1CCCC1,,,inactive [at 46.1 µM]
COc1ccc(NC(=S)NC2CCS(=O)(=O)C2)cc1 (stereo not given),inconclusive: 6.17%,,
COc1ccccc1C(=O)Nc1ccccc1C(=O)NC1CCCCC1,inconclusive: 32.7%,,
CCOc1ccccc1C=Nc1ccccc1C(=O)Nc1ccccc1,inconclusive: -4.49%,,
c1ccc(-c2cnc(CN3CCN(c4ccccc4)CC3)o2)cc1,inconclusive: 193%,,
Cc1cc(C)cc(NC(=S)NC(=O)C2CC2)c1,inconclusive: 32.2%,,
CC(=O)Nc1ccccc1NC(=O)c1ccccc1-c1ccccc1,inconclusive: -35%,,
COCCCNc1nc(CC(C)C)nc2c1nnn2Cc1ccccc1,,"inconclusive: 1.46 µM [activator, full curve]",
CN(C)CCCN(C(=O)c1cc(-c2cccs2)nc2ccccc12)c1nc2ccc(F)cc2s1,,"inconclusive: 4.11 µM [activator, partial curve]",
CC1CCc2c(sc3nc(CN4CCOCC4)nc(Sc4ccccc4)c23)C1 (stereo not given),inconclusive: 52.7%,,
COc1cc(OC)c(NC(=O)CCc2nc(-c3ccc(C)cc3)no2)cc1Cl,inconclusive: -30.5%,,
COc1cccc(N2CCN(c3ccc4nnc(CCC(=O)Nc5cc(C)ccn5)n4n3)CC2)c1,inconclusive: -94.3%,,
COc1ccc(CCN2C(=O)CN(Cc3ccccc3)CC2=O)cc1OC,inconclusive: 25.5%,,
CN(CC(=O)Nc1ccccc1C(F)(F)F)C(=O)CSc1nnnn1C,,"inconclusive: 0.259 µM [falling, partial curve]",
CCc1cc2cc(OC)ccc2nc1SCC(=O)Nc1cc(OC)c(OC)cc1C(=O)O,inconclusive: 31.6%,,
CCC1CN(C(=O)NCc2ccc(F)cc2)c2cc(Cl)ccc2O1 (stereo not given),,"inconclusive: 3.66 µM [falling, full curve]",
CCOC(=O)c1c(C)[nH]c(C)c1S(=O)(=O)N(C)CC(=O)NCc1ccc(C)cc1,,"inconclusive: 0.517 µM [activator, full curve, poor fit]",
